Measured values published in publication PMC6814582.
Results are given in words; binding and its absence hold for the method and conditions named. In cells and extracts the contact can be indirect. Some binding calls cover weakened binding; strength is not graded here.

The chains behind the UniProt entries cited, without tags or fusion partners. Residues count along the entry.
UniProt P04756, residues 21-457: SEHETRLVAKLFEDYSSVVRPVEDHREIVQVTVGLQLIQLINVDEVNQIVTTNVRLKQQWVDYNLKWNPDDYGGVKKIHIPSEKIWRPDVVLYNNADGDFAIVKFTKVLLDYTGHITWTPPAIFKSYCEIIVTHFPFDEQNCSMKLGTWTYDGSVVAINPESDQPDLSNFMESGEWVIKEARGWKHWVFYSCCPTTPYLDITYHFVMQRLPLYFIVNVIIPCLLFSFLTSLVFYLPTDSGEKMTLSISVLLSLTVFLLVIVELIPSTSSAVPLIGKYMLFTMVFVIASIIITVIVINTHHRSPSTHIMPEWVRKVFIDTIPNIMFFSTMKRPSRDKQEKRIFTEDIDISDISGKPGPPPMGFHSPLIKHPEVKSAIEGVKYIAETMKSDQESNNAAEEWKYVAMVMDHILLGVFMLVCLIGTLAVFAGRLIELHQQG
UniProt P42227: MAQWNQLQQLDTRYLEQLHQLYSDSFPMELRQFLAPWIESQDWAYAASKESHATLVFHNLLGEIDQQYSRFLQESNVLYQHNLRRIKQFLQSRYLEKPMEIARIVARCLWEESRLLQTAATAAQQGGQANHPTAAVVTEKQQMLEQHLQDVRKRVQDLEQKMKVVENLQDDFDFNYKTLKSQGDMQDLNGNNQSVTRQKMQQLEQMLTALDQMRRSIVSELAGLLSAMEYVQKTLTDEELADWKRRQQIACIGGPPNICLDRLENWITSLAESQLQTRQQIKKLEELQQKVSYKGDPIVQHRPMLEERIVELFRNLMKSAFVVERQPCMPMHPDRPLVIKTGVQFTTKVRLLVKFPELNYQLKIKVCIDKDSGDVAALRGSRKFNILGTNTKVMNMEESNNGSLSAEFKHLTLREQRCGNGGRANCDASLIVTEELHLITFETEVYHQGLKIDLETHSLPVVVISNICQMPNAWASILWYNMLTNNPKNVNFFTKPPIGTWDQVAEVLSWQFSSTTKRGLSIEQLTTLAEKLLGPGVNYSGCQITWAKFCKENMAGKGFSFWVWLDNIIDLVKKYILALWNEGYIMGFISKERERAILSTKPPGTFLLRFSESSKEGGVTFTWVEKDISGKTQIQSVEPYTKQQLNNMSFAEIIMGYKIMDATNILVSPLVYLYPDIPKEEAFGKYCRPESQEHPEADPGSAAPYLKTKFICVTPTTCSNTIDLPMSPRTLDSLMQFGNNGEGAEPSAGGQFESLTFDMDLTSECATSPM
UniProt P40763: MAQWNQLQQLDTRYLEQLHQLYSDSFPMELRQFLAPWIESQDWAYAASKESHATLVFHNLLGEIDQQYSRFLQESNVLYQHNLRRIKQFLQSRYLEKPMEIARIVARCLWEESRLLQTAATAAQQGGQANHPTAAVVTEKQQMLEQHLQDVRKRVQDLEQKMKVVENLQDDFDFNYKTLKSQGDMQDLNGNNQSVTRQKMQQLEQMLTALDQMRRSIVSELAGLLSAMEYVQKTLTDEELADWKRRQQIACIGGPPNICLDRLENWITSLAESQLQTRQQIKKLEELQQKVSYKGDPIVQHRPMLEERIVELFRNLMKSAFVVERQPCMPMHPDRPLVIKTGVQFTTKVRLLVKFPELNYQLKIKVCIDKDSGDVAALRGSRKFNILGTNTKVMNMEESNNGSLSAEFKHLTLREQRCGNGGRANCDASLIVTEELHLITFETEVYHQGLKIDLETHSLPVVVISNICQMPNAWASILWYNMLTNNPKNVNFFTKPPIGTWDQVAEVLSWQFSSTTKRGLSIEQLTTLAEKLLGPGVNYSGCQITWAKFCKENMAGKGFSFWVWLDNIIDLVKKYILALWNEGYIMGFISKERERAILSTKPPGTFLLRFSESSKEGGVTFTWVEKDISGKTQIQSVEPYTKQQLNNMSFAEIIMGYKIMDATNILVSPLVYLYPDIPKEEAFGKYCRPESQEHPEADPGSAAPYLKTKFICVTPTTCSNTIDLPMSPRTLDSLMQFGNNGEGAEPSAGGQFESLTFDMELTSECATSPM
UniProt P02708, residues 21-457: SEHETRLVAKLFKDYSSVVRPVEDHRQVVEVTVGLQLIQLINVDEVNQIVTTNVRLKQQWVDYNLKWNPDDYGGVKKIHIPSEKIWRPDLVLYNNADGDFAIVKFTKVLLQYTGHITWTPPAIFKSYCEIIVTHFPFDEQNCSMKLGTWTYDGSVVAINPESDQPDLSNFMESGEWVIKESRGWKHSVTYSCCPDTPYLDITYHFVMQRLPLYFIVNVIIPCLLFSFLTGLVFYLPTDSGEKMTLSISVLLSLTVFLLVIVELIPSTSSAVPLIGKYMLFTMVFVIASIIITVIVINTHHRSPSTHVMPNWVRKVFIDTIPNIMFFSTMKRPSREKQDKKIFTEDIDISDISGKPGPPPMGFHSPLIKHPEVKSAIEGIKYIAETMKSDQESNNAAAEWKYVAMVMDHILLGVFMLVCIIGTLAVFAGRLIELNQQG

What was measured:
[1] = target: α1 nicotinic acetylcholine receptor (nAChRα1), endogenous in mouse cell lines (mouse (endogenous in MOVAS and RAW264.7)) (UniProt P04756); experiment: co-IP; RAW264.7 whole cell lysate (0.5% Triton X-100 in PBS, protease and phosphatase inhibitors); IP with anti-STAT3 or anti-nAChRα1 antibody, normal mouse IgG as control, 2 h at room temperature; protein A/G magnetic beads; western blot
[2] = target: α1 nicotinic acetylcholine receptor (nAChRα1), endogenous in mouse cell lines (mouse (endogenous in MOVAS and RAW264.7)) (UniProt P04756); experiment: co-IP; MOVAS whole cell lysate (0.5% Triton X-100 in PBS, protease and phosphatase inhibitors); IP with anti-STAT3 or anti-nAChRα1 antibody, normal mouse IgG as control, 2 h at room temperature; protein A/G magnetic beads; western blot
[3] = target: nAChRα1-GFP (from α1-GFP-plasmid) (UniProt P04756); experiment: co-IP; 293T cells transfected with α1-GFP-plasmids or STAT3-GFP-plasmids; IP with anti-GFP-tag antibody, other steps as for MOVAS and RAW264.7; western blot
[4] = target: STAT3-GFP (from STAT3-GFP-plasmid) (UniProt P42227); experiment: as above
[5] = target: signal transducer and activator of transcription 3 (STAT3), endogenous in mouse cell lines (mouse (endogenous in MOVAS and RAW264.7)) (UniProt P42227); experiment: co-IP; RAW264.7 whole cell lysate (0.5% Triton X-100 in PBS, protease and phosphatase inhibitors); IP with anti-STAT3 or anti-nAChRα1 antibody, normal mouse IgG as control, 2 h at room temperature; protein A/G magnetic beads; western blot
[6] = target: signal transducer and activator of transcription 3 (STAT3), endogenous in mouse cell lines (mouse (endogenous in MOVAS and RAW264.7)) (UniProt P42227); experiment: co-IP; MOVAS whole cell lysate (0.5% Triton X-100 in PBS, protease and phosphatase inhibitors); IP with anti-STAT3 or anti-nAChRα1 antibody, normal mouse IgG as control, 2 h at room temperature; protein A/G magnetic beads; western blot

“signal transducer and activator of transcription 3 (STAT3), endogenous in mouse cell lines (from UniProt P42227 1-770)” was tested, and the binding [1] was “binds” and the binding [2] was “binds”.
“STAT3 in 293T cells (partner of α1-GFP) (from UniProt P40763 1-770)” was tested, and the binding [3] was “binds”.
In the case of “nAChRα1 in 293T cells (partner of STAT3-GFP) (from UniProt P02708 21-457) (receptor)”, the binding [4] is reported as “binds”.
“α1 nicotinic acetylcholine receptor (nAChRα1), endogenous in mouse cell lines (from UniProt P04756 21-457)” was tested, and the binding [5] was “binds” and the binding [6] was “binds”.
